At least one peptide structure holds a part that was inferred or is arguable (an end, a ring closure or a residue). No end group written: not given here.
Legend:
peptide pulsed targets = experiment: In vivo cellular cytotoxicity (killing) assay; parameters: species or system BALB/cj mice; conditions: mice primed i.v. with peptide-pulsed dendritic cells; targets injected six days later; flow cytometry eighteen hours later
[1] = test system: IFNγ-producing T cell responses; experiment: Peptide IFNγ ELISPOT on splenocytes; format: in vivo, BALB/cj mice; conditions: frozen splenocytes from Vaccine 2 vaccinated animals and from animals exposed to 1×10^4 Py wild-type sporozoites with azithromycin

Sequence | peptide-specific killing of peptide-pulsed targets (peptide pulsed targets) [%] | IFNγ response to peptide [1]
SYVPSAEQI [SYVPSAEQI, reference compound] | 84 | 
SYQKSINNI [SYQKSINNI] | 91 | specific IFNγ response

Source: patent publication US12233117B2, “Immunogenic compositions, antigen screening methods, and methods of generating immune responses” (priority 2015, dated 2025)
